Some entries share one result that the patent states for a list of compounds.
Each compound was assayed against T1, human recombinant P2X7 receptors (Homo sapiens, UniProt Q99572) (assay: Fluorescent Imaging Plate Reader (FLIPR) Ca Assay). Details: HEK293 cells expressing human recombinant P2X7; BzATP 60 μM; 30 min preincubation at room temperature.
T1 construct: expressed in transfected cells; host or cells: HEK293
T1 sequence (Q99572 1-595): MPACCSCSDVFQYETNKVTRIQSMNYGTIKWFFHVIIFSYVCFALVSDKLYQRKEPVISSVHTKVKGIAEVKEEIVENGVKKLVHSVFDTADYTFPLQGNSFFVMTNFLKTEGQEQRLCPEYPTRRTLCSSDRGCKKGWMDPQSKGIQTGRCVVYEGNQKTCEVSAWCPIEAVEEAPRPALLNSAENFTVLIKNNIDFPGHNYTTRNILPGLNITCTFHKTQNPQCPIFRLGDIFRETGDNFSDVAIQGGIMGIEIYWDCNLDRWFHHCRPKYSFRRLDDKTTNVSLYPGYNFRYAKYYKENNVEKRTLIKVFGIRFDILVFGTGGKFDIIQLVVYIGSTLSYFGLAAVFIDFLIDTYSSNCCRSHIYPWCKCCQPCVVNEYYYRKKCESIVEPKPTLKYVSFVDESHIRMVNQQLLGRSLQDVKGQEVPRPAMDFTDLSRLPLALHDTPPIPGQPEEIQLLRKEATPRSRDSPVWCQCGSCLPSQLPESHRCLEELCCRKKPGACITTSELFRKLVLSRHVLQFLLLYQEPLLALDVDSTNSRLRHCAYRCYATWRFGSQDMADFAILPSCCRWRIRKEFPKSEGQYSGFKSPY
Type: cell-based

Compound	pIC50 values in the FLIPR Ca Assay (antagonist, blocking BzATP responses)
Cc1n[nH]c(C)c1CC(=O)NCc1ccc(F)c(F)c1F [Example 5, 2-(3,5-Dimethyl-1H-pyrazol-4-yl)-N-[(2,3,4-trifluorophenyl)methyl]acetamide]	> 4.7
Cc1n[nH]c(C)c1CC(=O)NCc1cc(Cl)cc(Cl)c1 [Example 10, N-[(3,5-Dichlorophenyl)methyl]-2-(3,5-dimethyl-1H-pyrazol-4-yl)acetamide]	> 4.7
Cc1n[nH]c(C(F)(F)F)c1CC(=O)NCc1ccc(F)cc1Cl [Example 34, N-[(2-Chloro-4-fluorophenyl)methyl]-2-[3-methyl-5-(trifluoromethyl)-1H-pyrazol-4-yl]acetamide]	> 4.7
Cc1n[nH]c(C(F)(F)F)c1CC(=O)NCc1cccc(C(F)(F)F)c1Cl [Example 36, N-{[2-Chloro-3-(trifluoromethyl)phenyl]methyl}-2-[3-methyl-5-(trifluoromethyl)-1H-pyrazol-4-yl]acetamide]	> 4.7
Cc1n[nH]c(CC(C)C)c1CC(=O)NCc1ccc(F)cc1Cl [Example 1, N-[(2-Chloro-4-fluorophenyl)methyl]-2-[3-methyl-5-(2-methylpropyl)-1H-pyrazol-4-yl]acetamide]	> 4.7
Cc1n[nH]c(C)c1CC(=O)NCc1cccc(C(F)(F)F)c1Cl [Example 24, N-{[2-Chloro-3-(trifluoromethyl)phenyl]methyl}-2-(3,5-dimethyl-1H-pyrazol-4-yl)acetamide]	> 4.7
Cc1n[nH]c(C)c1CC(=O)NCc1ccc(F)cc1Cl [Example 4, N-[(2-Chloro-4-fluorophenyl)methyl]-2-(3,5-dimethyl-1H-pyrazol-4-yl)acetamide]	> 4.7
CC(C)c1n[nH]c(C(C)C)c1CC(=O)NCc1ccc(F)c(F)c1F [Example 33, 2-[3,5-Bis(1-methylethyl)-1H-pyrazol-4-yl]-N-[(2,3,4-trifluorophenyl)methyl]acetamide]	> 4.7
Cc1n[nH]c(C(F)(F)F)c1CC(=O)NCc1ccc(F)c(F)c1Cl [Example 35, N-[(2-Chloro-3,4-difluorophenyl)methyl]-2-[3-methyl-5-(trifluoromethyl)-1H-pyrazol-4-yl]acetamide]	> 4.7
Cc1ccc(CNC(=O)Cc2c(C)n[nH]c2C)c(C)c1 [Example 23, N-[(2,4-Dimethylphenyl)methyl]-2-(3,5-dimethyl-1H-pyrazol-4-yl)acetamide]	> 4.7
CCc1n[nH]c(CC)c1CC(=O)NCc1ccc(F)c(F)c1F [Example 31, 2-(3,5-Diethyl-1H-pyrazol-4-yl)-N-[(2,3,4-trifluorophenyl)methyl]acetamide]	> 4.7
Cc1n[nH]c(C)c1CC(=O)NCc1ccccc1Cl [Example 18, N-[(2-Chlorophenyl)methyl]-2-(3,5-dimethyl-1H-pyrazol-4-yl)acetamide]	> 4.7
Cc1n[nH]c(-c2ccccc2)c1CC(=O)NCc1ccc(F)cc1Cl [Example 2, N-[(2-Chloro-4-fluorophenyl)methyl]-2-(3-methyl-5-phenyl-1H-pyrazol-4-yl)acetamide]	> 4.7
CCc1n[nH]c(CC)c1CC(=O)NCc1ccc(F)cc1Cl [Example 30, N-[(2-Chloro-4-fluorophenyl)methyl]-2-(3,5-diethyl-1H-pyrazol-4-yl)acetamide]	> 4.7
Cc1n[nH]c(C)c1CC(=O)NCc1cc(Cl)ccc1Cl [Example 17, N-[(2,5-Dichlorophenyl)methyl]-2-(3,5-dimethyl-1H-pyrazol-4-yl)acetamide]	> 4.7
Cc1n[nH]c(C)c1CC(=O)NCc1cc(F)ccc1Cl [Example 14, N-[(2-Chloro-5-fluorophenyl)methyl]-2-(3,5-dimethyl-1H-pyrazol-4-yl)acetamide]	> 4.7
Cc1n[nH]c(C)c1CC(=O)NCc1c(Cl)cccc1Cl [Example 11, N-[(2,6-Dichlorophenyl)methyl]-2-(3,5-dimethyl-1H-pyrazol-4-yl)acetamide]	> 4.7

Compound	pIC50 values in the FLIPR Ca Assay (antagonist, blocking BzATP responses)
Cc1ccccc1CNC(=O)Cc1c(C)n[nH]c1C [Example 28, 2-(3,5-Dimethyl-1H-pyrazol-4-yl)-N-[(2-methylphenyl)methyl]acetamide]	> 4.7
Cc1n[nH]c(C)c1CC(=O)NCc1ccc(Cl)c(Cl)c1 [Example 9, N-[(3,4-Dichlorophenyl)methyl]-2-(3,5-dimethyl-1H-pyrazol-4-yl)acetamide]	> 4.7
CC(C)c1n[nH]c(C(C)C)c1CC(=O)NCc1ccc(F)cc1Cl [Example 32, 2-[3,5-Bis(1-methylethyl)-1H-pyrazol-4-yl]-N-[(2-chloro-4-fluorophenyl)methyl]acetamide]	> 4.7
Cc1n[nH]c(C)c1CC(=O)NCc1ccc(C(F)(F)F)cc1 [Example 29, 2-(3,5-Dimethyl-1H-pyrazol-4-yl)-N-{[4-(trifluoromethyl)phenyl]methyl}acetamide]	> 4.7
Cc1n[nH]c(C)c1CC(=O)NCc1cccc(Cl)c1C [Example 15, N-[(3-Chloro-2-methylphenyl)methyl]-2-(3,5-dimethyl-1H-pyrazol-4-yl)acetamide]	> 4.7
Cc1n[nH]c(C)c1CC(=O)NCc1ccc(Cl)c(C(F)(F)F)c1 [Example 22, N-{[4-Chloro-3-(trifluoromethyl)phenyl]methyl}-2-(3,5-dimethyl-1H-pyrazol-4-yl)acetamide]	> 4.7
Cc1ccc(Cl)c(CNC(=O)Cc2c(C)n[nH]c2C)c1F [Example 27, N-[(6-Chloro-2-fluoro-3-methylphenyl)methyl]-2-(3,5-dimethyl-1H-pyrazol-4-yl)acetamide]	> 4.7
Cc1n[nH]c(C)c1CC(=O)NCc1c(F)cccc1Cl [Example 16, N-[(2-Chloro-6-fluorophenyl)methyl]-2-(3,5-dimethyl-1H-pyrazol-4-yl)acetamide]	> 4.7
Cc1n[nH]c(C)c1CC(=O)NCc1ccc(F)cc1F [Example 19, N-[(2,4-Difluorophenyl)methyl]-2-(3,5-dimethyl-1H-pyrazol-4-yl)acetamide]	> 4.7
Cc1ccc(F)c(CNC(=O)Cc2c(C)n[nH]c2C)c1Cl [Example 25, N-[(2-Chloro-6-fluoro-3-methylphenyl)methyl]-2-(3,5-dimethyl-1H-pyrazol-4-yl)acetamide]	> 4.7
Cc1n[nH]c(C)c1CC(=O)NCc1ccc(F)cc1C(F)(F)F [Example 21, 2-(3,5-Dimethyl-1H-pyrazol-4-yl)-N-{[4-fluoro-2-(trifluoromethyl)phenyl]methyl}acetamide]	> 4.7
Cc1n[nH]c(C(C)(C)C)c1CC(=O)NCc1ccc(F)cc1Cl [Example 3, N-[(2-Chloro-4-fluorophenyl)methyl]-2-[5-(1,1-dimethylethyl)-3-methyl-1H-pyrazol-4-yl]acetamide]	> 4.7
Cc1cccc(Cl)c1CNC(=O)Cc1c(C)n[nH]c1C [Example 12, N-[(2-Chloro-6-methylphenyl)methyl]-2-(3,5-dimethyl-1H-pyrazol-4-yl)acetamide]	> 4.7
Cc1n[nH]c(C)c1CC(=O)NCc1ccc(Br)cc1F [Example 26, N-[(4-Bromo-2-fluorophenyl)methyl]-2-(3,5-dimethyl-1H-pyrazol-4-yl)acetamide]	> 4.7
Cc1n[nH]c(C)c1CC(=O)NC1CCCc2ccccc21 (stereo not drawn) [Example 37, 2-(3,5-Dimethyl-1H-pyrazol-4-yl)-N-[1,2,3,4-tetrahydro-1-naphthalenyl]acetamide]	> 4.7
Cc1n[nH]c(C)c1CC(=O)NCc1ccccc1Br [Example 6, N-[(2-Bromophenyl)methyl]-2-(3,5-dimethyl-1H-pyrazol-4-yl)acetamide]	> 4.7

From patent US20090149524A1, “N-(Phenylmethyl)-2-(1H-Pyrazol-4-yl) Acetamide Derivatives as P2X7 Antagonists for the Treatment of Pain, Inflammation and Neurodegeneration” (priority 2006, published 2009)
